Counter-ions that a name gives are not always drawn. ± gives the standard deviation of the averaged measurements. This is one part of the list. Part of the spread comes from offsets between plates or batches.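 The cells are a mouse kidney inner medullary collecting duct line, silenced either for the ciliary gene Rpgrip1l or with a non-targeting control siRNA.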
Columns and labels:
mIMCD3 [1] = experiment: robust z score of cell number vs plate controls; higher = more cells (less cytotoxic); conditions: 10 µM, 48 h
mIMCD3 [2] = experiment: robust z score of cilia incidence (% cells with single cilium) vs plate controls; higher = more ciliated cells; conditions: 10 µM; 48 h; siRNA: siScr
mIMCD3 [3] = experiment: robust z score of cilia incidence (% cells with single cilium) vs plate controls; higher = more ciliated cells (rescue of cilia loss); conditions: 10 µM; 48 h; siRNA: siRpgrip1l

| Structure (SMILES) | robust z score of cell number (mIMCD3 [1]; siRNA: siRpgrip1l) | robust z score of cell number (mIMCD3 [1]; siRNA: siScr) | robust z score of cilia incidence (mIMCD3 [2]) | robust z score of cilia incidence (mIMCD3 [3]) |
| --- | --- | --- | --- | --- |
| CN(CCOc1ccc(-c2ccc3c(c2)OCO3)cc1C(C)(C)C)CC(=O)O | -19.3 ± 21 | -5.2 ± 0.31 | -6.72 ± 11 | -11.9 ± 5.8 |
| C/N=C(/NC#N)NCCSCc1csc(NC(=N)N)n1 [Tiotidine] | -4.26 ± 3.4 | -1.9 ± 0.56 | 1.54 ± 3.5 | -3.38 ± 1.2 |
| CCC1=C(C)CN(C(=O)NCCc2ccc(S(=O)(=O)NC(=O)N[C@H]3CC[C@H](C)CC3)cc2)C1=O [Glimepiride] | -6.79 ± 4.3 | -6.71 ± 8.2 | -13.8 ± 22 | -7.78 ± 7.4 |
| CNC(=O)[C@@H](Cc1ccccc1)N(C)C(=O)[C@@H](Cc1ccc2ccccc2c1)N(C)C(=O)/C=C/CC(C)(C)N [Tabimorelin] | -7.97 ± 2.8 | -2.91 ± 1.4 | -0.477 ± 3.4 | -13.6 ± 12 |
| CC(C)NCC(O)c1ccc(O)c(O)c1 (stereo not given) [Isoproterenol hydrochloride] | -10.4 ± 8.7 | -10.2 ± 4.6 | -15.7 ± 17 | -22.8 ± 6.4 |
| COc1ccc2c(c1)c(CC(=O)N1CCOCC1)c(C)n2C(=O)c1ccc(Cl)cc1 | -18.5 ± 24 | -4.43 ± 2.4 | -0.596 ± 1.5 | -8.17 ± 2 |
| O=C(OCCN1CCCCC1)c1c[nH]c2ccccc12 | 3.68 ± 1.1 | 3.21 ± 0.76 | -14.1 ± 1 | -17.6 ± 2.2 |
| c1ccc(C(NCCNC(c2ccccc2)c2ccccc2)c2ccccc2)cc1 [AMN 082 dihydrochloride] | -29.8 ± 15 | -27.1 ± 4.9 | -27.8 ± 13 | -26.1 ± 10 |
| Cc1cccc(C(=O)NCN2CCN(c3ccccc3C#N)CC2)c1 | -50 ± 58 | -0.809 ± 3.5 | -0.102 ± 0.39 | -15.3 ± 1.3 |
| CC(=O)OCCNC(=O)c1cccnc1 [N-[2-(Acetoxy)ethyl]-3-pyridinecarboxamide] | 8.09 ± 15 | -1.22 ± 0.75 | 0.217 ± 0.14 | -7.42 ± 4 |

From the supplement of paper PMC12009310
